# Test results taken from the supplement of paper PMC8728848.
# The list shows a part of the results.
# B1: GroEL (Clostridium difficile), Q18CT5 (protein)
# chain: MAKEIKFSEETRRALEAGVNKLADTVKVTLGPKGRNVILDKKFGSPLITNDGVTIAKEIELEDRFENMGAQLVKEVATKTNDVAGDGTTTATVLAQAIIREGLKNVTAGANPILLRKGIQKAVTVAVEELKNQSRIVETQEAISQVASISAGDEEVGKLIAEAMEIVGKDGVITVEESQTMNTELDAVEGMQFDRGFVSAYMVTDVDKMEAVLNDPYILITDKKISNIQELLPVLEQIVQQGKKLLIIAEDVEGEALSTLVVNKLRGTFDVVAVKAPGFGDRRKEMLQDIAILTGAQVISEELGYDLKEADLSMLGRASSVKVTKESTTIVDGSGDKKAIEDRVTQIKHQVEQTTSDFDREKLMERLAKLAGGVAVVKVGAATEVELKERKLRIEDALNATRAAVEEGIVAGGGTAFVSVIPAIGTLIESLEGEVKLGAQIVKKALEEPLRQIAINAGLEGAVIVQNVVNSEAETGFDALNEKYVNMIEAGIVDPTKVSRSALQNAASIASTFLTTEAAVADLPEKEDAGMPGMGGGMPGMM
# Assays:
# Assay in all cases: glycan array binding signal (z-score within array); higher = stronger binding
# Details in all cases: glycan notation: IUPAC condensed, linker removed
# [1] = target: Neu5Ac(a2-3)Gal(b1-3)[Fuc(a1-4)]GlcNAc(b1-3)Gal(b1-3)[Fuc(a1-4)]GlcNAc
# Procedure, shortened: (§1)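 The Consortium for Functional Glycomics database supplied 3228 glycan arrays, of which those lacking an available protein sequence were dropped. The binding signal, a within-array Z-score, was averaged across arrays of the same protein sequence and across linkers. Negative scores can be read as non-binding.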
# [2] = target: Neu5Ac(a2-3)Gal(b1-3)[Fuc(a1-4)]GlcNAc(b1-3)Gal(b1-4)[Fuc(a1-3)]GlcNAc
# Procedure, shortened: as §1
# [3] = target: Neu5Ac(a2-3)Gal(b1-3)[GlcNAc(b1-6)]GalNAc
# Procedure, shortened: as §1
# [4] = target: Neu5Ac(a2-3)Gal(b1-3)[Neu5Ac(a2-6)]GalNAc
# Procedure, shortened: as §1
# [5] = target: Neu5Ac(a2-3)Gal(b1-3)[Neu5Ac(a2-6)]GlcNAc(b1-3)[Fuc(a1-3)[Gal(b1-4)]GlcNAc(b1-6)]Gal(b1-4)Glc
# Procedure, shortened: as §1
# [6] = target: Neu5Ac(a2-3)Gal(b1-3)]Neu5Ac(a2-3)Gal(b1-4)]GlcNAc
# Procedure, shortened: as §1
# Neu5Ac(a2-3)Gal(b1-4)Glc = target: Neu5Ac(a2-3)Gal(b1-4)Glc
# Procedure, shortened: as §1
# [7] = target: Neu5Ac(a2-3)Gal(b1-4)GlcNAc
# Procedure, shortened: as §1
# [8] = target: Neu5Ac(a2-3)Gal(b1-4)GlcNAc(b1-2)Man
# Procedure, shortened: as §1
# [9] = target: Neu5Ac(a2-3)Gal(b1-4)GlcNAc(b1-2)Man(a1-3)[GlcNAc(b1-4)][Neu5Ac(a2-3)Gal(b1-4)GlcNAc(b1-2)Man(a1-6)]Man(b1-4)GlcNAc(b1-4)GlcNAc
# Procedure, shortened: as §1
# [10] = target: Neu5Ac(a2-3)Gal(b1-4)GlcNAc(b1-2)Man(a1-3)[Neu5Ac(a2-3)Gal(b1-4)GlcNAc(b1-2)Man(a1-6)]Man(b1-4)GlcNAc(b1-4)GlcNAc
# Procedure, shortened: as §1
# [11] = target: Neu5Ac(a2-3)Gal(b1-4)GlcNAc(b1-2)Man(a1-3)[Neu5Ac(a2-3)Gal(b1-4)GlcNAc(b1-2)Man(a1-6)]Man(b1-4)GlcNAc(b1-4)[Fuc(a1-6)]GlcNAc
# Procedure, shortened: as §1
# [12] = target: Neu5Ac(a2-3)Gal(b1-4)GlcNAc(b1-2)Man(a1-3)[Neu5Ac(a2-6)Gal(b1-4)GlcNAc(b1-2)Man(a1-6)]Man(b1-4)GlcNAc(b1-4)GlcNAc
# Procedure, shortened: as §1
# [13] = target: Neu5Ac(a2-3)Gal(b1-4)GlcNAc(b1-2)[Neu5Ac(a2-3)Gal(b1-4)GlcNAc(b1-4)]Man(a1-3)[GlcNAc(b1-4)][Neu5Ac(a2-3)Gal(b1-4)GlcNAc(b1-2)[Neu5Ac(a2-3)Gal(b1-4)GlcNAc(b1-6)]Man(a1-6)]Man(b1-4)GlcNAc(b1-4)GlcNAc
# Procedure, shortened: as §1
# [14] = target: Neu5Ac(a2-3)Gal(b1-4)GlcNAc(b1-2)[Neu5Ac(a2-3)Gal(b1-4)GlcNAc(b1-4)]Man(a1-3)[GlcNAc(b1-4)][Neu5Ac(a2-3)Gal(b1-4)GlcNAc(b1-4)Man(a1-6)]Man(b1-4)GlcNAc(b1-4)GlcNAc
# Procedure, shortened: as §1
# [15] = target: Neu5Ac(a2-3)Gal(b1-4)GlcNAc(b1-2)[Neu5Ac(a2-3)Gal(b1-4)GlcNAc(b1-6)]Man(a1-6)[Neu5Ac(a2-3)Gal(b1-4)GlcNAc(b1-2)Man(a1-3)]Man(b1-4)GlcNAc(b1-4)GlcNAc
# Procedure, shortened: as §1
# [16] = target: Neu5Ac(a2-3)Gal(b1-4)GlcNAc(b1-2)[Neu5Ac(a2-3)Gal(b1-4)GlcNAc(b1-6)]Man(a1-6)[Neu5Ac(a2-3)Gal(b1-4)GlcNAc(b1-2)Man(a1-3)][GlcNAc(b1-4)]Man(b1-4)GlcNAc(b1-4)GlcNAc
# Procedure, shortened: as §1
# [17] = target: Neu5Ac(a2-3)Gal(b1-4)GlcNAc(b1-3)Gal
# Procedure, shortened: as §1
# [18] = target: Neu5Ac(a2-3)Gal(b1-4)GlcNAc(b1-3)Gal(b1-3)GlcNAc
# Procedure, shortened: as §1
# [19] = target: Neu5Ac(a2-3)Gal(b1-4)GlcNAc(b1-3)Gal(b1-4)GlcNAc
# Procedure, shortened: as §1
# [20] = target: Neu5Ac(a2-3)Gal(b1-4)GlcNAc(b1-3)Gal(b1-4)GlcNAc(b1-2)Man(a1-3)[Neu5Ac(a2-3)Gal(b1-4)GlcNAc(b1-3)Gal(b1-4)GlcNAc(b1-2)Man(a1-6)]Man(b1-4)GlcNAc(b1-4)GlcNAc
# Procedure, shortened: as §1
# [21] = target: Neu5Ac(a2-3)Gal(b1-4)GlcNAc(b1-3)Gal(b1-4)GlcNAc(b1-3)Gal(b1-4)GlcNAc
# Procedure, shortened: as §1
# [22] = target: Neu5Ac(a2-3)Gal(b1-4)GlcNAc(b1-3)Gal(b1-4)GlcNAc(b1-3)Gal(b1-4)GlcNAc(b1-2)Man(a1-3)[Neu5Ac(a2-3)Gal(b1-4)GlcNAc(b1-3)Gal(b1-4)GlcNAc(b1-3)Gal(b1-4)GlcNAc(b1-2)Man(a1-6)]GalNAc
# Procedure, shortened: as §1
# [23] = target: Neu5Ac(a2-3)Gal(b1-4)GlcNAc(b1-3)Gal(b1-4)GlcNAc(b1-3)GalNAc
# Procedure, shortened: as §1
# [24] = target: Neu5Ac(a2-3)Gal(b1-4)GlcNAc(b1-3)Gal(b1-4)GlcNAc(b1-3)[Neu5Ac(a2-3)Gal(b1-4)GlcNAc(b1-3)Gal(b1-4)GlcNAc(b1-6)]GalNAc
# Procedure, shortened: as §1
# [25] = target: Neu5Ac(a2-3)Gal(b1-4)GlcNAc(b1-3)Gal(b1-4)GlcNAc(b1-6)[Gal(b1-3)]GalNAc
# Procedure, shortened: as §1
# [26] = target: Neu5Ac(a2-3)Gal(b1-4)GlcNAc(b1-3)Gal(b1-4)[Fuc(a1-3)]GlcNAc
# Procedure, shortened: as §1
# [27] = target: Neu5Ac(a2-3)Gal(b1-4)GlcNAc(b1-3)GalNAc
# Procedure, shortened: as §1
# [28] = target: Neu5Ac(a2-3)Gal(b1-4)GlcNAc(b1-3)[Neu5Ac(a2-3)Gal(b1-4)GlcNAc(b1-6)]GalNAc
# Procedure, shortened: as §1
# [29] = target: Neu5Ac(a2-3)Gal(b1-4)GlcNAc(b1-6)GalNAc
# Procedure, shortened: as §1
binder,measurement,setting,value
B1,glycan array binding signal (z-score),[1],-0.304
same,glycan array binding signal (z-score),[2],-0.174
same,glycan array binding signal (z-score),[3],-0.894
same,glycan array binding signal (z-score),[4],0.68
same,glycan array binding signal (z-score),[5],1.18
same,glycan array binding signal (z-score),[6],0.065
same,glycan array binding signal (z-score),Neu5Ac(a2-3)Gal(b1-4)Glc,0.753
same,glycan array binding signal (z-score),[7],0.671
same,glycan array binding signal (z-score),[8],0.243
same,glycan array binding signal (z-score),[9],0.59
same,glycan array binding signal (z-score),[10],0.413
same,glycan array binding signal (z-score),[11],-0.183
same,glycan array binding signal (z-score),[12],0.024
same,glycan array binding signal (z-score),[13],-0.102
same,glycan array binding signal (z-score),[14],-1.27
same,glycan array binding signal (z-score),[15],-0.583
same,glycan array binding signal (z-score),[16],-1.01
same,glycan array binding signal (z-score),[17],-0.912
same,glycan array binding signal (z-score),[18],-0.651
same,glycan array binding signal (z-score),[19],-0.366
same,glycan array binding signal (z-score),[20],1.97
same,glycan array binding signal (z-score),[21],0.35
same,glycan array binding signal (z-score),[22],-0.249
same,glycan array binding signal (z-score),[23],-0.287
same,glycan array binding signal (z-score),[24],-0.095
same,glycan array binding signal (z-score),[25],1.14
same,glycan array binding signal (z-score),[26],-1.03
same,glycan array binding signal (z-score),[27],0.079
same,glycan array binding signal (z-score),[28],0.087
same,glycan array binding signal (z-score),[29],-0.601
